Earlier results in patent US5693608A, “Method of administering a biologically active substance” (Bechgaard International Research and Development A/S, priority 1990, dated 1997).

Conditions: rats, cited from earlier work

COC(=O)C1=C(C)NC(C)=C(C(=O)OC)C1c1ccccc1[N+](=O)[O-] [nifedipine]
time to plasma peak concentration (nasal gel (carbopol in PEG 400)): > 30 min
bioavailability (in words) (nasal gel versus peroral): higher bioavailability of nifedipine than after peroral administration
